In publication doi:10.1101/2025.11.26.690669:
Like-named read-outs stand apart in the source and are kept apart here. These are yes or no findings as the source states them, for the method shown. In cells and extracts the contact can be indirect. Some entries that bind do so weakly or less than the wild type. Blank lines part the entries; values can stand above or below the binder they belong to.

Sequences of proteins named here, by UniProt entry; tags and fusion partners are left off. A change or cut given only in a name is not applied to a line headed by its entry.
UniProt P61586: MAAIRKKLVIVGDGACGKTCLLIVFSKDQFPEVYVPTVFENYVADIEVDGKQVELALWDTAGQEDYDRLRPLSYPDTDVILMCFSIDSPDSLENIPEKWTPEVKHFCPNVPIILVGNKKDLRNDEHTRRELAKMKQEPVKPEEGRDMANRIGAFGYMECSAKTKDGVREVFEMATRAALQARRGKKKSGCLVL

Columns and labels:
[1] = biological target: GST-RhoA^G17A (nucleotide-free RhoA mutant) (UniProt P61586); test: pull-down
[2] = biological target: GST-RhoA^G17A (nucleotide-free RhoA mutant) (UniProt P61586); test: pull-down; remark: listed apart in the source

- binding [1]: binds
- binding [2]: binds
B1: NET1/ARHGEF8 (endogenous, human smooth muscle cells) (protein, UniProt Q7Z628 1-596)
chain: MEPELAAQKQPRPRRRSRRASGLSTEGATGPSADTSGSELDGRCSLRRGSSFTFLTPGPNWDFTLKRKRREKDDDVVSLSSLDLKEPSNKRVRPLARVTSLANLISPVRNGAVRRFGQTIQSFTLRGDHRSPASAQKFSSRSTVPTPAKRRSSALWSEMLDITMKESLTTREIRRQEAIYEMSRGEQDLIEDLKLARKAYHDPMLKLSIMSEEELTHIFGDLDSYIPLHEDLLTRIGEATKPDGTVEQIGHILVSWLPRLNAYRGYCSNQLAAKALLDQKKQDPRVQDFLQRCLESPFSRKLDLWSFLDIPRSRLVKYPLLLKEILKHTPKEHPDVQLLEDAILIIQGVLSDINLKKGESECQYYIDKLEYLDEKQRDPRIEASKVLLCHGELRSKSGHKLYIFLFQDILVLTRPVTRNERHSYQVYRQPIPVQELVLEDLQDGDVRMGGSFRGAFSNSEKAKNIFRIRFHDPSPAQSHTLQANDVFHKQQWFNCIRAAIAPFQSAGSPPELQGLPELHEECEGNHPSARKLTAQRRASTVSSVTQVEVDENAYRCGSGMQMAEDSKSLKTHQTQPGIRRARDKALSGGKRKETLV

- binding [2]: binds
B2: NET1/ARHGEF8 (endogenous, mouse 3T3-L1 fibroblasts) (protein, UniProt Q9Z206 1-595)
chain: MEPEPAAQKQPRPRRRSRRVSMLSEEPAAGLPADTPGPAANERCSLRRGSSFTFLTPGPHWDFTLKRKRREKDDDAVSLSSLDLKEPSNKRVRPLARVTSLANLISPVRNGAVRRFGQTIQSFTLRGDHRSPASAQKSFSRSTVPTPTKRRSSALWSEMLDINMKESLTTREIKRQEAIYELSRGEQDLIEDLKLARKAYHDPMLKLSIMSEEELTHIFGDLDAYIPLHEDLLARIGEATKPDGTVEQIGHILVNWLPGLNAYRGYCSNQLAAKALLDQKKQDPRVQDFLQRCLESPFSRKLDLWSFLDIPRSRLVKYPLLLKEILRHTPKDHRDVQLLEEAILIIQGVLSDINLKKGESECQYYINKLEYLDEKQKDPRIEASKVLLCHGELKNKSGHKLYIFLFQDILVLTRPVTRNERHLYQVYRQPIPVQELVLEDLQDGDVRMGGSFRGAFGNSDKAKNIFRVRFQDPSPGHSHTLQANDVFHKQQWFNCIRAAIAPFQRAASPLELQGLPDLHEECEENNPSAGNLRAQRRSCVVPGVMQIDEESALDCGSSVQTVEDTRNMKAQRPQPGLRRARDKAQSGGKKKETLV
